In US20050261472A1, “Binding moieties for fibrin” (Dyax Corp., priority 1999, published 2005):

Target: DD(E) soluble fibrin-derived polypeptide
Assay: competitive DD(E) binding assay with fluoresceinated peptides

B1: fluoresceinated peptide corresponding to SEQ ID NO: 22 (peptide)
peptide: QWECPYGLCWIQ
modifications: fluorescein label, site not stated
- binding: binds

No constants are given. Whether binding was seen depends on the method and setting. Binding calls can cover weak binding; strength is not graded here.
